## Library screening results

Results are given as percent effect. The record does not define 0% and 100%; most values in the screen are far below 50% and negative numbers occur (in some assays of this library far below -100). Compounds were drawn at random from those tested, without regard to their results.

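Assay on Mycobacterium tuberculosis, filed only as a heat shock assay from Cornell; the read-out is not stated. The concentration is filed as 10 mM, unlikely as a test dose, so the dose is not known. Direction is inferred from retests: higher values go with stronger inhibition. Of about 69,000 compounds tested this way, about 930 (1.4%) reached 50% or more in at least one test.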

- Cc1nnc2n1CC(CNCc1nc(-c3cccs3)no1)CC2 (stereo not shown) | -8.032%
- CCNC(=O)NC(=O)CNC(C)(C)c1ccc2c(c1)OCO2 | -4.153%
- CN(C(=O)CN1CCC(c2cc3ccccc3[nH]2)CC1)C1CC1 | -13.99%
- O=C(NCc1ccccc1)c1nn(C2CCS(=O)(=O)C2)c2c1CCCC2 (stereo not shown) | -30.29%
- CCc1cc(=O)n(CC(=O)NCC2CCCO2)c(-c2cccc(F)c2)n1 (stereo not shown) | 19.5%
- CC(O)CN1CCN(C(=O)c2ccc(N3CCCC3)nn2)CC1 (stereo not shown) | -6.338%
- CC1(C)CN=C(N2CCN(CC3CCCO3)CC2)S1 (stereo not shown) | -3.965%
- Cc1noc(C)c1CN(C)c1ncnc2ccccc12 | -23.29%
- CC(C)c1nnc(N2C[C@@H](CN(C)CCO)[C@@H](CO)C2)s1 | 20.97%
- CC(=O)N(Cc1noc(C)n1)C1CCN(Cc2ccccn2)C1 (stereo not shown) | -15.13%
- CCS(=O)(=O)N1CCC(NC(=O)c2ccccc2O)CC1 | -5.582%
- CCNC(=O)C1(Cc2ccc(-c3ccccc3)cc2)CCCNC1 (stereo not shown) | -10.83%
- COC(=O)C(NC(=O)C(C)C)c1cc(F)ccc1F (stereo not shown) | 14.08%
- O=C(NCc1ccccc1)N1CCC(Oc2ncccc2Cl)CC1 | -20.54%
- CN(C)S(=O)(=O)NC1CC(=O)N(c2ccccc2Cl)C1 (stereo not shown) | 20.95%
- Cn1nc(COCC2CC2)c2c1CCN(Cc1cccs1)C2.O=C(O)C(F)(F)F | 9.263%
- COCc1nc2n(n1)CCCC2Nc1nc(C(C)C)ns1 (stereo not shown) | 8.199%
- CN1CCCc2cc(CNC(=O)c3ccncc3)ccc21 | -21%
- CC(C)N1CCCC2(CCN(C(=O)CCCn3cccn3)C2)C1=O (stereo not shown) | 15.11%
- CCS(=O)(=O)Nc1ccc2c(c1)C1(CCOCC1)CN2C.O=C(O)C(F)(F)F | 36%
- CCN(CC)C(=O)Cn1ccc2cc(NC(=O)NC3CC3)ccc21 | 61.18%
- CCCN(Cc1ccc(C(=O)NCC2COCCO2)c(=O)[nH]1)C1CC1 (stereo not shown) | -15.91%
- O[C@H]1[C@H](n2cc(-c3ccccn3)nn2)c2ccccc2C12CCNCC2 | 1.658%
- CC(C)c1cccc(S(=O)(=O)NCCCN2CCC(O)CC2)c1 | -2.674%
- COc1ccc(F)c(F)c1CN1CCN(CC(C)C)C(=O)C1C (stereo not shown) | -31.97%
- O=C(NCC1CCS(=O)(=O)C1)c1ccc2cccc(Cl)c2n1 (stereo not shown) | 1.711%
- O=C(c1cn(Cc2ccc(Cl)cc2)nn1)N1CCCO1 | 26.48%
- N#Cc1cccc(N2CCC(CO)(CCOc3ccccc3)CC2)n1 | -28.31%
- Cc1ccc(C2CCCCCN2Cc2cn(C)nc2C)cc1 (stereo not shown) | 7.469%
- CCOC(=O)N1CCC(Nc2cc(CC)nc3c(C)c(C)nn23)CC1 | -7.891%
- Cc1cc(C)n(CC2CCCN2CC(=O)NC2CCOCC2)n1 (stereo not shown) | 20.15%
- CC1CCN(C(=O)C2CCN(c3ccc(Cl)cc3C#N)CC2)CC1 | 10.1%
- Cc1nc(-c2nnc[nH]2)sc1C(=O)N1CCCC1c1ccsc1 (stereo not shown) | -14.04%
- Cc1cccc(NC2CCN(C(=O)Nc3cc(F)ccc3F)CC2)n1 | -15.1%
- Cc1cnn(CC2CCCN2CC(=O)NC2CCN(C3CC3)CC2)c1 (stereo not shown) | -16.3%
- COCCCNC(=O)C1CN(C(=O)c2cnccn2)C1 | 12.83%
- Clc1snnc1CN1CCCCC1Cn1cccn1 (stereo not shown) | -9.827%
- CNC(=O)CSc1nc2c(cnn2Cc2ccc(F)cc2)c(=O)[nH]1 | -15.89%
- COCc1cnc2n1CCN(C(=O)c1cc3cc(Cl)ccc3o1)C2C (stereo not shown) | -11.88%
- O=C1NC[C@]2(CC[C@@H](C(=O)N3CCC(O)CC3)CC2)Oc2ccccc21 | 4.686%
- N#Cc1ccccc1C(=O)N1C[C@@H](CN2CCOCC2)[C@@H](CO)C1 | 4.051%
- Cc1nc(CN(C)C2CCN(Cc3c(C)noc3C)C2)no1 (stereo not shown) | 22.46%
- CCc1noc(C(C)N(C)CC(=O)Nc2ccccc2Cl)n1 (stereo not shown) | -2.759%
- COc1ccc2nc(NC(=O)c3c(C(=O)O)cnn3C)sc2c1 | 11.19%
- O=C1CC2(CCCC2)CC(=O)N1Cc1nccs1 | -26.54%
- Cc1ccc2c(c1)C1(CCNCC1)CC2NC1CC1.Cl.Cl (stereo not shown) | 0.8549%
- O=C(O)C(F)(F)F.[H][C@@]12C[C@@H](c3nc(C4CC4)cs3)O[C@]1([H])CN(C(=O)C1CCOCC1)C2 | -4.334%
- COCCNC(=O)c1sc(Nc2ccc(Cl)cn2)nc1C | 8.604%
- Cc1n[nH]c(C2CN(C(=O)c3cc(C4CC4)on3)CCO2)n1 (stereo not shown) | -31.95%
- Cc1cc(C)cc(CNC(C)c2c(C)nn(C)c2C)c1 (stereo not shown) | -33.33%
- CC(C)N1CCC(Cc2cc(-c3cc(F)ccc3C(=O)O)ncn2)C1 (stereo not shown) | -13.7%
- Cc1ccc(CN2CCCC2(C(N)=O)c2cnccn2)c(C)c1 (stereo not shown) | -7.547%
- Cc1c[nH]c(CN2CCCn3nc(CNS(C)(=O)=O)cc3C2)n1 | -21.81%
- CCNc1nc(-c2cccnc2)c(-c2ccnc(NCCO)n2)s1 | -14.28%
- Cc1ccc(Cl)cc1N1CCN(CC(=O)NCc2ccco2)CC1 | 20.22%
- CN(C)Cc1nc2c(o1)CN(S(=O)(=O)c1cccs1)C2.O=C(O)C(F)(F)F | 15.44%
- COc1ccccc1N1CCN(C(=O)CCn2nnnc2C)CC1(C)C | -9.474%
- Cc1nc(NCC2CC2)nc2c1COCC21CCN(S(=O)(=O)C2CC2)C1 (stereo not shown) | 6.288%

Some entries from above, unchanged:

Compound,Percent Effect
Clc1snnc1CN1CCCCC1Cn1cccn1 (stereo not shown),-9.827%
CCS(=O)(=O)N1CCC(NC(=O)c2ccccc2O)CC1,-5.582%
CC(O)CN1CCN(C(=O)c2ccc(N3CCCC3)nn2)CC1 (stereo not shown),-6.338%
Cc1ccc(C2CCCCCN2Cc2cn(C)nc2C)cc1 (stereo not shown),7.469%

Source: ChEMBL document CHEMBL3988442, “University of Dundee, Small-Polar-MMV Screening Library” (2021).